From patent US20260271924A1, “COMPOSITIONS FOR MODULATING PLANT GROWTH AND STRESS TOLERANCE, AND METHODS OF USE THEREOF” (The Regents of the University of California, priority 2023, published 2026)
“Also recorded” adds a separate entry of the source. At least one compound was matched to its structure with a doubt left.

Protein sequences, listed by entry. Tags and fused reporters are not part of them. Lines headed by an entry give the natural chain unless they say otherwise; changes in a name come on top. Residues count along the entry.
UniProt P32961: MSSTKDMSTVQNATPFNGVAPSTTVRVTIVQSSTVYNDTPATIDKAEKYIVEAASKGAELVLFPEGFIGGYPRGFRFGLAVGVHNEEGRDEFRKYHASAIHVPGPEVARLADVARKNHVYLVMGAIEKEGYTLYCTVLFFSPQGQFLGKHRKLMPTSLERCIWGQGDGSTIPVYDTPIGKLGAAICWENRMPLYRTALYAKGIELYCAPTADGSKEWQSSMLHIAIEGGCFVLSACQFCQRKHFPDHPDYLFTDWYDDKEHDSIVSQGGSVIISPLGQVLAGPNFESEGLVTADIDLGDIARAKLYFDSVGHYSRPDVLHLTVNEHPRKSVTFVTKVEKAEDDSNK
UniProt O82663, 33-634: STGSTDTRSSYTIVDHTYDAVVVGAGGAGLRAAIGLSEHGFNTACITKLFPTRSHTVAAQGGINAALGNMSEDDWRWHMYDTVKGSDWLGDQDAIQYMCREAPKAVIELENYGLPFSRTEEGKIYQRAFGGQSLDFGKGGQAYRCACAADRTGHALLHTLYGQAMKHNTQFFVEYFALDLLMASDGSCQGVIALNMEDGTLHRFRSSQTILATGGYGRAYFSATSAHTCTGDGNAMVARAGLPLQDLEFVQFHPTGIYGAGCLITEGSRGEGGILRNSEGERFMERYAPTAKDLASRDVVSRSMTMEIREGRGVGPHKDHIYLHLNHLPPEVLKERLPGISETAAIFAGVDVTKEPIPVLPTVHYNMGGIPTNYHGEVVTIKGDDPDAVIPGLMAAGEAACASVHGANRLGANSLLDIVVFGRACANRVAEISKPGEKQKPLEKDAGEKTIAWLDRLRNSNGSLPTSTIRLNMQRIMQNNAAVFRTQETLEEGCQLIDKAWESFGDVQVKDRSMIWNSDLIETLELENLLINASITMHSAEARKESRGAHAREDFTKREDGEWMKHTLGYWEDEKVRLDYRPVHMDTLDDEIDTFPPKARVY
UniProt Q944G9, 47-398: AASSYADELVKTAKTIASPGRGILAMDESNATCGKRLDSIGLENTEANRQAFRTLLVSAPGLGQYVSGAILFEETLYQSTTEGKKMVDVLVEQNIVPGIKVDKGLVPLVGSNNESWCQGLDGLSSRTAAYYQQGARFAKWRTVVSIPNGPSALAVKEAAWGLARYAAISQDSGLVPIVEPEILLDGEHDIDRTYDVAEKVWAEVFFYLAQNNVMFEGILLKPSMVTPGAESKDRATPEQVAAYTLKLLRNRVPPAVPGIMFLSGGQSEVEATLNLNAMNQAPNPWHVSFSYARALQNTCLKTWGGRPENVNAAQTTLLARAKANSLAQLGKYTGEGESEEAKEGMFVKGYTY
UniProt Q04613: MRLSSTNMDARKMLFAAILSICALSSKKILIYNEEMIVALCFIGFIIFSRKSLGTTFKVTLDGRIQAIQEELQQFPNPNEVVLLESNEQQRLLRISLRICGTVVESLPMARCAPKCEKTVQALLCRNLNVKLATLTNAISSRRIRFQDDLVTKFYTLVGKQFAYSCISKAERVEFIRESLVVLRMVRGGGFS
UniProt P93306, whole entry: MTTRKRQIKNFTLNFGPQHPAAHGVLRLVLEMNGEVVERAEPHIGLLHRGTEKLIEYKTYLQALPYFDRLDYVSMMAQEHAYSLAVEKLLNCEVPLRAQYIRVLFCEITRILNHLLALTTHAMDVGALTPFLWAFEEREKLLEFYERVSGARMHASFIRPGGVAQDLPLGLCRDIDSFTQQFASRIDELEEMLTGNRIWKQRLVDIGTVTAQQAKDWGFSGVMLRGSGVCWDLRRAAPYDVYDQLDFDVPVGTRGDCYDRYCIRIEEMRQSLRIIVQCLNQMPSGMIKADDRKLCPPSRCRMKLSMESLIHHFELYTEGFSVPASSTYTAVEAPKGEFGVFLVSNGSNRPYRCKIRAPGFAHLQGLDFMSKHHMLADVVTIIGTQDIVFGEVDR

Experiments:
Arabidopsis [1] = assay: Arabidopsis seedling growth / primary root length on treated ½× MS media; type: in vivo, Arabidopsis thaliana; conditions: exogenous itaconate treatment
Description: (§1) Plant Growth. For the Arabidopsis treatments, compounds were added to sterile ½× Murashige and Skoog (MS) plant growth media, and the pH was adjusted to 5.7 using potassium hydroxide. Seeds were sterilized using 20% bleach and sowed on the treated plant growth media. Plants were incubated in a 16 h/8 h day/night cycle growth chamber at 22° C. for 7-14 days prior to phenotyping. For the maize treatments, compounds were added to water, and the pH was adjusted to 5.7 using potassium hydroxide. Maize seeds were sterilized using 20% bleach and grown in large size seed germination pouches (see, e.g., mega-international.com) with the treatment. Plants were incubated in a 16 h/8 h day/night cycle growth chamber at 28° C. night/21° C. day for 5 days prior to phenotyping.
Stock Solutions. 100 mM stock solutions of the various metabolites and itaconate were produced. Metabolites were dissolved using Milli-Q (MQ) water and the pH was adjusted to 5.7-5.8 using 1M KOH. The Ocyl-itaconate stock solution was dissolved in dimethyl sulfoxide (DMSO). Arabidopsis seeds were sterilized using 20% bleach and allowed to mix for 7 minutes. After mixing, seeds were rinsed with sterilized water 6 times. […] All quantifications of the seedlings were performed on FIJI Image J. Seedlings with interesting phenotypes were then transferred to soil in 22° C. conditions with light intensity 625 lux.

6×ABRE-R:erGFP = assay: ABA signaling reporter line imaging; type: in vivo, Arabidopsis thaliana; conditions: 2 mM itaconate
From the text: (§2) Confocal Images. For Arabidopsis, most of the roots were stained by PI (Propidium iodide). Hormone reporter lines (GFP, 488 nm), hydrogen peroxide sensor lines (GFP, 488 nm; CFP, 408 nm) (see, Shi et al., Nat. Commun. 13:5040, 2022), ATP sensor lines (DeCol et al., eLife, 6:e26770, 2017) were observed under a Leica SP8 confocal microscope (CFP, 439 nm; VENUS, 516 nm).

[2] = test system: GAP (Glyceraldehyde 3-phosphate dehydrogenase) family proteins; assay: Chemoproteomic profiling of itaconation (click chemistry); type: binding, Arabidopsis thaliana
Rubisco = target: T1, Rubisco (Arabidopsis thaliana, UniProt O03042); assay: as above; type: binding
T1 construct: 1 mL of protein extract from 14 days Arabidopsis seedlings was added to ITalk probe; from tissue; host or cells: Arabidopsis seedlings, 14 days

maize leaf = assay: Chlorophyll content of maize leaf; type: in vivo; conditions: 1 mM itaconate, seedling stage (Day 5)
TCSn-GFP = assay: Cytokinin signaling reporter line imaging; type: in vivo, Arabidopsis thaliana; conditions: for overall fluorescent intensity of TCSn-GFP: 2 mM itaconate, compared to the control
From the text: as §2

XAL2 = assay: qRT-PCR of XAL2 expression; type: in vivo, Arabidopsis thaliana; conditions: 2 mM itaconate
NIT1 = target: T2, NIT1 (Arabidopsis thaliana, UniProt P32961); assay: Chemoproteomic profiling of itaconation (click chemistry); type: binding
T2 construct: 1 mL of protein extract from 14 days Arabidopsis seedlings was added to ITalk probe; from tissue; host or cells: Arabidopsis seedlings, 14 days

pCYCB1; 1-CYCB1; 1-GFP = assay: Cell cycle reporter line imaging; type: in vivo, Arabidopsis thaliana; conditions: 2 mM itaconate; compared to the control
From the text: as §2

SDH1-1 = target: T3, SDH1-1 (Arabidopsis thaliana, UniProt O82663); assay: DARTS assay on Arabidopsis root protein extract; type: binding; conditions: 1 mM itaconate
T3 construct: Proteins from Arabidopsis roots were isolated and treated without or with itaconate; from tissue; host or cells: Arabidopsis root, 9 days post germination

[3] = test system: Arabidopsis mutant and overexpression lines; assay: Root growth of Arabidopsis mutant and overexpression lines under itaconate treatment; type: in vivo, Arabidopsis thaliana
[4] = target: T4, FBA2 (Fructose-bisphosphate aldolase 2) (Arabidopsis thaliana, UniProt Q944G9); assay: Chemoproteomic profiling of itaconation (click chemistry); type: binding
T4 construct: 1 mL of protein extract from 14 days Arabidopsis seedlings was added to ITalk probe; from tissue; host or cells: Arabidopsis seedlings, 14 days

ORF25 = target: T5, ORF25 (Arabidopsis thaliana, UniProt Q04613); assay: as above; type: binding; conditions: mitochondria
T5 construct: 1 mL of protein extract from 14 days Arabidopsis seedlings was added to ITalk probe; from tissue; host or cells: Arabidopsis seedlings, 14 days

hydrogen peroxide = assay: H2DCFDA staining of Arabidopsis roots (ROS); type: in vivo, Arabidopsis thaliana; conditions: 1 mM itaconate
ATP levels = assay: Fluorescent ATP reporter line imaging; type: in vivo, Arabidopsis thaliana; conditions: 2 mM itaconate
From the text: as §2

superoxide = assay: NBT staining of Arabidopsis roots (ROS); type: in vivo, Arabidopsis thaliana; conditions: 1 mM itaconate; for ROS levels in Arabidopsis roots: NBT and H2DCFDA staining, 50 μM 4-OI
Description: ROS staining. For ROS staining, superoxides were detected using NBT; and hydrogen peroxide was detected using 2′,7′-dichlorodihydrofluorescein diacetate (H2DCFDA).
NBT staining procedures were carried out as described in Kumar et al., Bio-protcol, 4:e1108, 2014. Briefly, a 0.2% solution of NBT was made in a 50 mM sodium phosphate buffer. This solution was used to soak seedlings for 2 minutes in the dark and was then rinsed using deionized (DI) water. Images were taken on a with a 1× objective with a Nikon SMZ1270 Stereo microscope.

Arabidopsis [5] = assay: Arabidopsis root growth under itaconate combined with stress agents or sucrose; type: in vivo, Arabidopsis thaliana; conditions: for sensitivity to CdCl2 stress in the presence of itaconate: 2 way ANOVA interaction P=0.1042
Description: as §1

Arabidopsis root = assay: Number of meristem cells and length of mature cells in Arabidopsis roots; type: in vivo, Arabidopsis thaliana
NAD7 = target: T6, NAD7 (Arabidopsis thaliana, UniProt P93306); assay: Chemoproteomic profiling of itaconation (click chemistry); type: binding; conditions: mitochondria
T6 construct: 1 mL of protein extract from 14 days Arabidopsis seedlings was added to ITalk probe; from tissue; host or cells: Arabidopsis seedlings, 14 days

DR5-GFP = assay: Auxin reporter line imaging; type: in vivo, Arabidopsis thaliana; conditions: itaconate treatment
From the text: as §2

MatryoshCaMP6s = assay: Ca2+ reporter line imaging; type: in vivo, Arabidopsis thaliana; conditions: 2 mM itaconate; root tips; compared to the control
maize = assay: Maize seedling growth under treatment in seed germination pouches; type: in vivo; conditions: 1 mM itaconate
Description: as §1

Arabidopsis [6] = assay: Growth of untreated progeny (G-1, G-2) of itaconate-treated plants; type: in vivo
35S-Hyper = assay: H2O2 sensor line imaging; type: in vivo, Arabidopsis thaliana; conditions: 2 mM itaconate
pPIN1-PIN1-GFP = assay: Auxin transport reporter line imaging; type: in vivo, Arabidopsis thaliana; conditions: itaconate treatment
From the text: as §2

Arabidopsis leaves = assay: Chlorophyll content of Arabidopsis leaves; type: in vivo, Arabidopsis thaliana; conditions: Arabidopsis leaves under itaconate treatment, seedling stage
[7] = 2 way ANOVA interaction P<0.0001

For `C=C(CC(=O)O)C(=O)O` [itaconate], the “effect on Arabidopsis growth” value (Arabidopsis [1]) was “dose-dependent inhibitory effect”, the “ABA signaling (6×ABRE-R:erGFP reporter intensity in roots)” value (6×ABRE-R:erGFP) was “induces ABA signaling” and the “ABA signaling (6×ABRE-R:erGFP reporter intensity in roots)” value (6×ABRE-R:erGFP; listed as Itaconate) was “induces the intensity”. The “interaction with GAP family proteins” value [2] was “bind itaconate”, the “itaconation of Rubisco” value (Rubisco) was “significant modifications” and the chlorophyll content (maize leaf) was “does not exhibit any difference from control treatment”. For the same compound, the “overall fluorescent intensity of TCSn-GFP” value (TCSn-GFP) was “decreases”, the “overall fluorescent intensity of TCSn-GFP” value (TCSn-GFP; listed as Itaconate) was “reduces” and the “TCSn-GFP intensity in the columella” value (TCSn-GFP; itaconate or 4-OI treatment) was “decrease”. The XAL2 expression (XAL2) was “significantly downregulated”, the “targeting of NIT1” value (NIT1) was “targets” and the “number of actively dividing cells” value (pCYCB1; 1-CYCB1; 1-GFP) was “significant reduction”. For the same compound, the “stability to proteolysis of SDH1-1 upon itaconate treatment” value (SDH1-1) was “more significantly stable”, the “response of xal2-2 mutant to itaconate treatment” value ([3]; 1 mM itaconate, 2-way ANOVA interaction P<0.0001) was “insensitivity; also recorded: insensitive” and the “response of XAL2 overexpression line (35S-XAL2) to itaconate treatment” value ([3]; 2 mM itaconate, compared to WT, 2-way ANOVA interaction P<0.0001) was “resistant; also recorded: responds differently”. The “root growth response of 35S-SnRK1 overexpression line to itaconate treatment” value [3, 7] was “hypersensitivity; also recorded: sensitive”, the “response of snrk1 mutant to itaconate treatment” value ([3]; 2 way ANOVA interaction P=0.1329) was “not sensitive” and the “response of hIRG1 overexpression lines to itaconate treatment” value ([3]; compared to wild type plants, 2 way ANOVA interaction P=0.0002) was “sensitive”. For the same compound, the “root growth in the XAL2 overexpression line” value ([3]; itaconate treatment) was “increases root growth”, the “interaction with FBA2” value [4] was “bind itaconate” and the “effect on ORF25” value (ORF25) was “affects”. For the same compound, the “level of hydrogen peroxide (H2DCFDA staining)” value (hydrogen peroxide; differentiation zone) was “is induced”, the “level of hydrogen peroxide (H2DCFDA staining)” value (hydrogen peroxide; meristem zone) was “remains unchanged” and the ATP levels (ATP levels; differentiation zone) was “decrease”. For the same compound, the ATP levels (ATP levels; meristem zone) was “but not in the meristem zone”, the “levels of superoxide (NBT staining)” value (superoxide; meristem zone and differentiation zone) was “decreases” and the “ROS levels in Arabidopsis roots” value (superoxide) was “downregulates ROS levels”. The “ROS levels in Arabidopsis roots” value (superoxide; listed as Itaconate) was “repress”, the “root growth, itaconate in combination with NaCl stress compared to itaconate treatment alone” value (Arabidopsis [5]; 50 mM NaCl combined with 200 μM itaconate) was “do not result in significant alterations” and the “root growth, itaconate in combination with mannitol stress compared to itaconate treatment alone” value (Arabidopsis [5]; 100 mM Mannitol combined with 50 μM itaconate) was “do not result in significant alterations”. For the same compound, the “sensitivity to flg22 treatment in the presence of itaconate” value (Arabidopsis [5]; [7]) was “insensitive”, the “sensitivity to CdCl2 stress in the presence of itaconate” value (Arabidopsis [5]) was “normal sensitivity” and the “sensitivity to CdCl2 stress in the presence of itaconate” value (Arabidopsis [5]; listed as Itaconate) was “but not CdCl2 treatment”. The “dependence of the effect of itaconate on root growth on sucrose concentration” value (Arabidopsis [5]; different concentration of sucrose in ½ MS medium) was “highly dependent; also recorded: dependent on sucrose concentration”, the “effect of itaconate on root growth” value (Arabidopsis [5]; high concentrations of sucrose) was “can rescue the phenotype” and the “effect of itaconate on root growth” value (Arabidopsis [5]; low concentrations of sucrose) was “dramatically exacerbate”. For the same compound, the “length of mature cells” value (Arabidopsis root; 1 mM itaconate) was “no significant alteration; also recorded: not significantly changed”, the “number of meristem cells” value (Arabidopsis root; 1 mM itaconate) was “a reduction in the number of meristem cells” and the “length of mature cells” value (Arabidopsis root; 2 mM itaconate) was “inhibited”. For the same compound, the “meristem size / number of meristem cells” value (Arabidopsis root; 2 mM itaconate) was “inhibited; also recorded: decreased”, the “effect on NAD7” value (NAD7) was “affects” and the “average fluorescent signal intensity of DR5-GFP in columella cells” value (DR5-GFP) was “is not affected”. For the same compound, the “average fluorescent signal intensity of DR5-GFP in columella cells” value (DR5-GFP; listed as Itaconate) was “does not change”, the “Ca2+ signal intensity” value (MatryoshCaMP6s) was “is reduced” and the shoot growth (maize) was “enhance shoot growth”. For the same compound, the “growth of progeny of itaconate-treated plants” value (Arabidopsis [6]; control and stress conditions, progeny never treated themselves) was “increased growth in control and stress conditions”, the “growth and stress response in the next generation (G-2)” value (Arabidopsis [6]; in vivo) was “further amplified” and the “robustness of progeny (G-1) of plants treated with itaconate vs parents (G-0)” value (Arabidopsis [6]; progeny never treated themselves) was “more robust than their parents”. The “H2O2 levels (35S-Hyper, intensity ratio 488 nm to 405 nm)” value (35S-Hyper) was “reduces the H2O2 levels”, the “fluorescent intensity of pPIN1-PIN1-GFP” value (pPIN1-PIN1-GFP) was “is decreased” and the chlorophyll content (Arabidopsis leaves) was “reduced chlorophyll content; also recorded: decreased”.
